The target in the test is T1, U-II receptors (rat thoracic aorta tissue) (rat) (UniProt P49684).
T1 sequence (looked up): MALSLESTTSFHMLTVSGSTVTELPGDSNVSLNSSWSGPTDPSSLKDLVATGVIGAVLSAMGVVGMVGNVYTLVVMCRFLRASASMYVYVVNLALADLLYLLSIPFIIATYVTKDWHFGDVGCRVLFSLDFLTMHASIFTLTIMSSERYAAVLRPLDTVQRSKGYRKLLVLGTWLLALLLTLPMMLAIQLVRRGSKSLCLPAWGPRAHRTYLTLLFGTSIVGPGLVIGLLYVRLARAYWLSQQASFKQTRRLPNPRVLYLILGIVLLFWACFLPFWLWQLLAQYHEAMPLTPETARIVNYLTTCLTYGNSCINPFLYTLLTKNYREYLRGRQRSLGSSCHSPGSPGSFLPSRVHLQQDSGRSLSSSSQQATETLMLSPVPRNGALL
Briefly: binding to rat aorta tissue; method not described.

Results are given in words; binding and its absence hold for the method and conditions named. Some binding calls cover weakened binding; strength is not graded here. Bridge positions count the residues as written; N and C are the ends. Ends that are not written are not given here.

For DCFWKYCV (cyclic c[Cys-...-Cys] between Cys 2 and Cys 7; C-terminal -OH (free acid)) [Asp-c[Cys-Phe-Trp-Lys-Tyr-Cys]-Val-OH (SEQ ID NO: 3)], the binding entry is on record as “binds”.

For the origin of these results see patent EP1878743A2, “Urotensin-II agonists and antagonists” (The Administrators of The Tulane Educational Fund, priority 2000, dated 2002).
